According to patent publication US6921775B2, “Methods for modulating brain damage” (Children's Medical Center Corporation, priority 2001, dated 2005):
Some of these results come from one statement about several compounds together.

Tested on: OL precursor cells
Assay: Oxygen-glucose deprivation (OGD)-induced cell death in OL precursor cultures
Assay type: cell-based, rat
Settings: 2-hr OGD, survival 24 hr later, p<0.05 ANOVA-Tukey

Compound	concentration giving significant protective effect against OGD-induced OL death [µM]
NS(=O)(=O)c1cccc2c1c([N+](=O)[O-])cc1[nH]c(=O)c(=O)[nH]c12 [NBQX, 2,3-Dioxo-6-nitro-1,2,3,4-tetrahydrobenzo[f]quinoxaline-7-sulphonamide]	≥ 30
CC1(C)O[C@@H]2[C@@H](CO[C@@]3(COS(N)(=O)=O)OC(C)(C)O[C@@H]23)O1 [topiramate]	≥ 30
